The record followed here is doi:10.1101/2024.10.06.616869.

These are yes or no findings as the source states them, for the method shown. Binding seen in cells or lysates may run through a third protein. A result given as binding can be weak or reduced; the word gives no strength. Where a sequence is shown, tags or fusion partners need not be part of it.

The assay has as its target T1, FLAG-tagged full-length Pf3D7_0811400 (P. falciparum) (UniProt C0H4U0).
T1 sequence: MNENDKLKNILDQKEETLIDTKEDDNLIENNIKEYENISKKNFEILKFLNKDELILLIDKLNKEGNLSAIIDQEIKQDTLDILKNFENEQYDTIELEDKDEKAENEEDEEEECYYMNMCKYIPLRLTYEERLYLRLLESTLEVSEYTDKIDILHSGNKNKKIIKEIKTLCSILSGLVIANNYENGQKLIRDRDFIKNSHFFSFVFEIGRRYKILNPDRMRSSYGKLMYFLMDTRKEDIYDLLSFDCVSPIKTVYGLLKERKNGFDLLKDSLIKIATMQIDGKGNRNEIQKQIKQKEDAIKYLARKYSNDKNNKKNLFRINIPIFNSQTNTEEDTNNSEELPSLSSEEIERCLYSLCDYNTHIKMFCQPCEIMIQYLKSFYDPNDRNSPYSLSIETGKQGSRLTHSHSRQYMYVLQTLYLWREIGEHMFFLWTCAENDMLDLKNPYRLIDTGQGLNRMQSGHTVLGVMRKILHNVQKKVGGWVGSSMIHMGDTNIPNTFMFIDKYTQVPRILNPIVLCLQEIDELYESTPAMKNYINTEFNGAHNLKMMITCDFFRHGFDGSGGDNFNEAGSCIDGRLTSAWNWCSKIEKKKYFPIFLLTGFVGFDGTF
The assay is described as follows: co-IP.

Consider MYC-tagged PfRbx1 (P. falciparum), for which the binding entry is reported as “binds”.
